According to publication PMC7862700:
The entries are a selection whose mix differs from that of the whole data set. At the low end of the ranking the order means little.

Each sequence was assayed against T1, ELK1 (UniProt P19419) (assay: DAPPL (digital affinity profiling via proximity ligation, sequencing)). Conditions: 10 mM Tris-HCl pH 7.5, 50 mM NaCl, 1 mM DTT, 4% glycerol, room temperature, 30 min; GST-TFs on glutathione beads, 16-mer random dsDNA library, 0.1% …; high values mean tight binding; double strand, one strand shown; scale: fold enrichment (6-mer frequency, TF over GST control).
T1 sequence: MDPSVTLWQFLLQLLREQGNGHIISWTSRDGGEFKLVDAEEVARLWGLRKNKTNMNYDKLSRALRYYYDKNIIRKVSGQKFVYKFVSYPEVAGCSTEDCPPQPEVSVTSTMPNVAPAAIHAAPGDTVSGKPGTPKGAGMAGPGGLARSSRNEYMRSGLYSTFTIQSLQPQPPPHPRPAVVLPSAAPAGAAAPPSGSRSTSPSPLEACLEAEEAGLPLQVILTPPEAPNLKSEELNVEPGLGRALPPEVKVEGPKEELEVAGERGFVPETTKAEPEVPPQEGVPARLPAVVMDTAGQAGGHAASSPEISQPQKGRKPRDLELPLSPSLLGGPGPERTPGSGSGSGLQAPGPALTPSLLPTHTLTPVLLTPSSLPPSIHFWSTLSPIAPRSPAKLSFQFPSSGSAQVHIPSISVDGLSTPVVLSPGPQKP
TTCCCA showed a binding signal of 1.3.
TGCACA was tested, and the binding signal was 1.18.
TAGATA showed a binding signal of 1.03.
For CCTTTT, the binding signal was 1.46.
TTTCTG showed a binding signal of 1.35.
For TTGACT, the binding signal was 1.19.
GATCAA showed a binding signal of 0.979.
For CGTTAT, the binding signal was 1.11.
In the case of ACTCGA, the binding signal is reported as 1.48.
For CAACCG, the binding signal was 1.13.
Work on AAACGC yielded a binding signal of 1.17.
In the case of GCCTAA, the binding signal is reported as 1.17.
AAACAC was tested, and the binding signal was 1.33.
Sequence CGAACT has a binding signal of 1.17.
Sequence TGTACG has a binding signal of 1.23.
Sequence TCACTC has a binding signal of 1.19.
GTTCAC showed a binding signal of 1.23.
Sequence TCACCC has a binding signal of 1.23.
In the case of TTGTTA, the binding signal is reported as 1.34.
ATTGGG gave a binding signal of 1.24.
CCCTCA gave a binding signal of 1.11.
TATATT gave a binding signal of 1.33.
TAGATG showed a binding signal of 1.29.
AATTAC gave a binding signal of 1.19.
For ACGCAC, the binding signal was 1.09.
In the case of TTAATC, the binding signal is reported as 1.21.
Sequence ATTCAC has a binding signal of 1.2.
GTTGCG gave a binding signal of 1.04.
In the case of GTTTAT, the binding signal is reported as 1.02.
AAAGTA was tested, and the binding signal was 1.1.
With GCTCTC the binding signal was 1.5.
Sequence GTTCCT has a binding signal of 1.69.
TCCATT gave a binding signal of 1.16.
Sequence TGACGC has a binding signal of 1.22.
Work on TACGGC yielded a binding signal of 1.25.
Sequence GATGTC has a binding signal of 1.37.
With ATATCA the binding signal was 1.24.
Work on CTGCGC yielded a binding signal of 1.4.
Work on AAAATG yielded a binding signal of 1.15.
